PubChem BioAssay AID1259405 – NCATS – 2018
Here is one part, drawn at random, of about 50,000 reagents tested. Over the whole deposit, about 4,000 (8%) were called active. 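Mouse siRNA library applied to hamster cells; one well for each siRNA.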 The numbers tell different reagents against one gene apart.

- Assay: 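Mouse-designed siRNAs used to find CHO productivity engineering targets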 (primary screen)
- Cells: Chinese hamster CHO-K1 ovary cells with stable secreted eGFP expression
- Reagents: single siRNA against mouse genes, 0.8 pmol siRNA per well (2 µl of 400 nM stock)
- Timing: 3 days
- Read-out: 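Per-well intracellular GFP measured by laser scanning cytometry, plus viability from ATP luminescence, each relative to plate median of non-targeting control wells, in %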
- Scale: GFP, % of control: higher = more GFP per well, higher productivity; viability (ATP), % of control: higher = more viable cells (more ATP)
- Call rule: 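Called active when intracellular GFP, relative to negative control, is at or above 120%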

| gene | reagent no. | GFP, % of control | viability (ATP), % of control | outcome |
| --- | --- | --- | --- | --- |
| Samd5 | 1 | 82.4 | 114 | inactive |
| Samd5 | 2 | 51.2 | 48.8 | inactive |
| Samd5 | 3 | 54.1 | 64 | inactive |
| Abhd2 | 1 | 49.5 | 69.9 | inactive |
| Abhd2 | 2 | 112 | 89.3 | inactive |
| Abhd2 | 3 | 9.78 | 39.5 | inactive |
| Ccn3 | 1 | 62.3 | 63.9 | inactive |
| Ccn3 | 2 | 88.1 | 60.3 | inactive |
| Ccn3 | 3 | 59.7 | 72.9 | inactive |
| Lsg1 | 1 | 116 | 104 | inactive |
| Lsg1 | 2 | 68 | 82.5 | inactive |
| Lsg1 | 3 | 46.3 | 52.1 | inactive |
| Tmsb15a | 1 | 57.1 | 62 | inactive |
| Tmsb15a | 2 | 98.2 | 44.6 | inactive |
| Tmsb15a | 3 | 44 | 64.4 | inactive |
| Tas2r104 | 1 | 68.9 | 74.7 | inactive |
| Tas2r104 | 2 | 111 | 88.4 | inactive |
| Tas2r104 | 3 | 63.2 | 89.5 | inactive |
| Tsnax | 1 | 79.9 | 69 | inactive |
| Tsnax | 2 | 86.4 | 101 | inactive |
| Mapk1 | 1 | 58.3 | 70.7 | inactive |
| Kdm5a | 1 | 96 | 104 | inactive |
| Kdm5a | 2 | 34.6 | 58.7 | inactive |
| Kdm5a | 3 | 108 | 80.3 | inactive |
| R74862 | 1 | 36.3 | 50.7 | inactive |
| R74862 | 2 | 82.1 | 77.8 | inactive |
| R74862 | 3 | 37.2 | 52.7 | inactive |
| Emc2 | 1 | 89.2 | 86.1 | inactive |
| Emc2 | 2 | 80.3 | 60 | inactive |
| Emc2 | 3 | 66.9 | 88.7 | inactive |
| Bbs4 | 1 | 63.9 | 66 | inactive |
| Bbs4 | 2 | 73.6 | 83.6 | inactive |
| Bbs4 | 3 | 55.3 | 53.7 | inactive |
| Zfp641 | 1 | 62.1 | 58.2 | inactive |
| Zfp641 | 2 | 49.5 | 60 | inactive |
| Zfp641 | 3 | 89.8 | 108 | inactive |
| Lypd10 | 1 | 109 | 147 | inactive |
| Lypd10 | 2 | 88.2 | 58.6 | inactive |
| Lypd10 | 3 | 126 | 149 | active |
| Tns1 | 1 | 159 | 130 | active |
| Tns1 | 2 | 59.1 | 88.2 | inactive |
| Tns1 | 3 | 97.2 | 86.1 | inactive |
| Habp2 | 1 | 111 | 83.4 | inactive |
| Habp2 | 2 | 76.9 | 84.5 | inactive |
| Pitpna | 1 | 82.9 | 98.8 | inactive |
| Pitpna | 2 | 126 | 97.9 | active |
| Spef2 | 1 | 59.1 | 50.6 | inactive |
| Spef2 | 2 | 77.4 | 90 | inactive |
| Spef2 | 3 | 185 | 138 | active |
| Cimap1a | 1 | 116 | 83.6 | inactive |
| Cimap1a | 2 | 93 | 110 | inactive |
| Cimap1a | 3 | 94.7 | 71.3 | inactive |
| Teddm1a | 1 | 57.4 | 77.3 | inactive |
| Teddm1a | 2 | 93.3 | 58.3 | inactive |
| Teddm1a | 3 | 147 | 84.1 | active |
| Tff1 | 1 | 61.5 | 75.8 | inactive |
| Tff1 | 2 | 93.7 | 78.3 | inactive |
| Tff1 | 3 | 78.9 | 82 | inactive |
| Pde7a | 1 | 102 | 80.9 | inactive |
| Pde7a | 2 | 44.9 | 34 | inactive |
| Pde7a | 3 | 33.7 | 30.5 | inactive |
| Ctla2a | 1 | 71 | 108 | inactive |
| Ctla2a | 2 | 50 | 71.2 | inactive |
| Ctla2a | 3 | 78.2 | 90.6 | inactive |
| Ppm1a | 1 | 79.5 | 66.2 | inactive |
| Ppm1a | 2 | 53.8 | 44.2 | inactive |
| Ppm1a | 3 | 92.3 | 82.8 | inactive |
| Midn | 1 | 60 | 65.6 | inactive |
| Midn | 2 | 72.6 | 61.8 | inactive |
| Midn | 3 | 69.3 | 56.1 | inactive |
| Aox1 | 1 | 86.9 | 122 | inactive |
| Aox1 | 2 | 51.6 | 76.1 | inactive |
| H2bc3 | 1 | 92.6 | 60.3 | inactive |
| H2bc3 | 2 | 132 | 76.9 | active |
| H2bc3 | 3 | 95.6 | 77.1 | inactive |
| Enkd1 | 1 | 98.4 | 101 | inactive |
| Enkd1 | 2 | 38.3 | 18.4 | inactive |
| Enkd1 | 3 | 108 | 80.8 | inactive |
| Trim65 | 1 | 107 | 101 | inactive |
| Trim65 | 2 | 65.5 | 79.1 | inactive |
| Pnn | 1 | 53.9 | 49.9 | inactive |
| Pnn | 2 | 57.5 | 73.4 | inactive |
| Pnn | 3 | 78.4 | 63.9 | inactive |
| Wiz | 1 | 95.1 | 87.5 | inactive |
| Wiz | 2 | 98.8 | 88.4 | inactive |
| Wiz | 3 | 90.5 | 100 | inactive |
| Celf4 | 1 | 53.2 | 58.4 | inactive |
| Celf4 | 2 | 59.2 | 66.4 | inactive |
| Celf4 | 3 | 32.2 | 52.2 | inactive |
| Ergic3 | 1 | 49 | 53.5 | inactive |
| Ergic3 | 2 | 79 | 64.6 | inactive |
| Ergic3 | 3 | 61 | 97.8 | inactive |
| Vmn1r89 | 1 | 77.6 | 57.6 | inactive |
| Vmn1r89 | 2 | 73.2 | 47.1 | inactive |
| Vmn1r89 | 3 | 108 | 106 | inactive |
| Got1l1 | 1 | 67.6 | 61.6 | inactive |
| Got1l1 | 2 | 70.2 | 89.3 | inactive |
| Got1l1 | 3 | 38.3 | 63.8 | inactive |
| Ints13 | 1 | 34.9 | 38.6 | inactive |
| Ints13 | 2 | 67.1 | 96.8 | inactive |
| Ints13 | 3 | 70.1 | 109 | inactive |
| Acvr1b | 1 | 104 | 87.4 | inactive |
| Skic8 | 1 | 69.7 | 102 | inactive |
| Skic8 | 2 | 88.9 | 95.7 | inactive |
| Skic8 | 3 | 98.4 | 115 | inactive |
| Krt20 | 1 | 33.7 | 56.6 | inactive |
| Krt20 | 2 | 78.5 | 67.1 | inactive |
| Krt20 | 3 | 117 | 76.4 | inactive |
